# Experiment: Analyte selectivity assay for AlDeLuc aldehyde product
# Settings: 50 μM
smiles,measurement,setting,value
"CCN(CC)c1ccc2nc(C3=NC(C=O)CS3)sc2c1 (centres unmarked) [aldehyde form of AlDeLuc, 2-(6-(diethylamino)benzo[d]thiazol-2-yl)-4,5-dihydrothiazole-4-carbaldehyde]","effect of glutathione, lysine, cysteine, 5-methoxytryptamine on ALDH1A1-catalyzed bioluminescence","Cys and GSH 1 mM, others 100 μM",did not attenuate the bioluminescence
same,"oxidation of aldehyde by peroxides, radicals or hypochlorite","analytes 100 μM, one hour room temperature",No interference

# Source: patent US20250282770A1, “BIOLUMINESCENT PROBES TO TRACK STEM CELLS IN VIVO” (THE BOARD OF TRUSTEES OF THE UNIVERSITY OF ILLINOIS, priority 2024, published 2025)
